Article PMC5482481
Substitutions are numbered along the chain they refer to. No constants are given. Whether binding was seen depends on the method and setting. In cells and extracts the contact can be indirect. Some binding calls cover weakened binding; strength is not graded here. Sequences can lack the tags named with a protein.

Protein sequences, listed by entry. Tags and fused reporters are not part of them.
UniProt P37231: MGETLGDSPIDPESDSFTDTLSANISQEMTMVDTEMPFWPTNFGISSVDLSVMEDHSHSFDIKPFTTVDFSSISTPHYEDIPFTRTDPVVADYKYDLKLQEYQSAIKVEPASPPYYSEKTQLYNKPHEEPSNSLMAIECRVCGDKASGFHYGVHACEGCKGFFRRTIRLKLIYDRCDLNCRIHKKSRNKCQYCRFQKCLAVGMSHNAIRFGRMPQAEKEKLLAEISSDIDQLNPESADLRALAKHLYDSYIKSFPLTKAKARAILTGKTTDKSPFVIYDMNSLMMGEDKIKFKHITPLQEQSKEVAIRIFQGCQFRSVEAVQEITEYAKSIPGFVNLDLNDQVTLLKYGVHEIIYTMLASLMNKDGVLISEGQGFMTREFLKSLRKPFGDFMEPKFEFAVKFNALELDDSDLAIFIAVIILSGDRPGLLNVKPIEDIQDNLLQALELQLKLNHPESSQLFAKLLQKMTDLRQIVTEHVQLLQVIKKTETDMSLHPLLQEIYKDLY

Legend:
[1] = molecular target: T1, pig Pgc1α p.C430S, myc-tagged (pig) (UniProt Q865B6); test: co-IP; HEK293T cells co-transfected with DYK-tagged OGT and Pgc1α-myc WT or p.C430S; lysis in 50 mM TRIS pH 8, 150 mM NaCl, 1% NP-40, 0.1 mM EDTA, 2 mM nicotinamide, 10 mM NaF; anti-myc (9E10) at 4 °C overnight, Dynabeads 2 h at 4 °C; blot with anti-PPARγ; non-transfected cells as control
T1 sequence (chain, O-GlcNAc (sites not stated; level higher than in WT)): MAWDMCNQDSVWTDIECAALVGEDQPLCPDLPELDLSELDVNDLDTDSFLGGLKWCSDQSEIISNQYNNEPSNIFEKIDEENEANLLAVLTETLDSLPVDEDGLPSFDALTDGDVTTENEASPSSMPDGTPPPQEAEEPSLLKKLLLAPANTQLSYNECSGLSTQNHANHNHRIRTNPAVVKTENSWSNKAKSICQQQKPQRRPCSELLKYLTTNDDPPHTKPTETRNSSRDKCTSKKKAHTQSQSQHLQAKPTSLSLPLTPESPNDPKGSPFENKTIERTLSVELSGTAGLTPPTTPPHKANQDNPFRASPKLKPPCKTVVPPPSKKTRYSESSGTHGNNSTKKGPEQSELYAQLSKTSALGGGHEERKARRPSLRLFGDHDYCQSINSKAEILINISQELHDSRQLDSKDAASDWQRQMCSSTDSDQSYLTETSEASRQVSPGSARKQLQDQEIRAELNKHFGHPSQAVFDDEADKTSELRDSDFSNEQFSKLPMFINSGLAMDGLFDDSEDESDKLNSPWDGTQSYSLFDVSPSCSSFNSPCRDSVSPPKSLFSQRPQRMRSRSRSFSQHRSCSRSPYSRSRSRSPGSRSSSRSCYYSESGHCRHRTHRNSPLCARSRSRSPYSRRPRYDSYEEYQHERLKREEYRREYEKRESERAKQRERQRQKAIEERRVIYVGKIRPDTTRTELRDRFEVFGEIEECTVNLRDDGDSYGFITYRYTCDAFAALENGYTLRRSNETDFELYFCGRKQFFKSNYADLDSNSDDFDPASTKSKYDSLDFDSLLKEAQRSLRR

[2] = molecular target: T2, pig Pgc1α wild type (p.430C), myc-tagged (pig) (UniProt Q865B6); test: as above
T2 sequence (chain, O-GlcNAc (sites not stated; level lower than in p.C430S)): T1 sequence (chain, O-GlcNAc (sites not stated; level higher than in WT)) with S430C

PPARγ (from UniProt P37231 1-505) was tested, and the binding [1] was “binds” and the binding [2] was “binds”.
